Binding signal data for 38 sequences are collected here from paper PMC7862700.

This is a selection; strong and weak results do not stand in their true shares. At the low end of the ranking the order means little.

In the test the target is SPI1 (UniProt P17947). Description: DAPPL (digital affinity profiling via proximity ligation, sequencing). Conditions: 10 mM Tris-HCl pH 7.5, 50 mM NaCl, 1 mM DTT, 4% glycerol, room temperature, 30 min; GST-TFs on glutathione beads, 16-mer random dsDNA library, 0.1% …; high values mean tight binding; double strand, one strand shown; scale: fold enrichment (6-mer frequency, TF over GST control).
TGGTGA gave a binding signal of 0.952.

Regarding CACGTT, the binding signal was 1.3.

Regarding CAATTT, the binding signal stood at 1.32.

Consider ACTTCG, for which the binding signal stood at 1.44.

On to GGTACT, for which the binding signal was 1.19.

CGGGCT: the binding signal was determined as 0.946.

For the sequence AAGGGC, the binding signal amounted to 0.946.

For the sequence TGTCAG, the binding signal turned out to be 0.974.

TATCTT displayed a binding signal of 1.3.

CGCTTG yielded a binding signal of 0.975.

CCGTTA showed a binding signal of 0.932.

Sequence ACGTCC displayed a binding signal of 1.49.

For TACGAG, the binding signal came out at 0.904.

Take AACAAG: the binding signal is 1.04.

In turn, GCAGCA had a binding signal of 0.918.

For the sequence GGCTAA, the binding signal amounted to 0.979.

AACGAT came in with a binding signal of 1.17.

With CGGCAC, the binding signal was determined as 0.985.

GCCACC: the binding signal was 0.918.

Consider AATTCG, for which the binding signal was 1.13.

Take AGCTCG: the binding signal was determined as 0.993.

The sequence GCGAAC returned a binding signal of 0.999.

In the case of GAAACC, the binding signal was 0.99.

With AGTTTT, the binding signal worked out at 0.939.

As to TAAATT, the binding signal was 1.22.

The sequence AAGAAC registered a binding signal of 1.14.

With TAGGTC, the binding signal amounted to 0.927.

With GTTTTT, the binding signal came out at 1.42.

For the sequence TTGAAG, the binding signal came out at 0.903.

TCTTTC came in with a binding signal of 1.51.

On to TGTCAA, for which the binding signal was found to be 1.

Turning to CATGTT, the binding signal is 1.04.

Regarding CGTTGG, the binding signal was determined as 0.944.

The sequence AGAACA returned a binding signal of 0.998.

GCGTTT came in with a binding signal of 1.05.

ATGGGA yielded a binding signal of 1.

In the case of TCTGGA, the binding signal is 1.01.

ATTACC had a binding signal of 1.16.
